Experimental data from the supplement of paper PMC12823440, “Inhibitors supercharge kinase turnover through native proteolytic circuits” (Nature, 2025).
Where a name gives a salt, the structure may show the parent alone. This is one part of the list. Hit calls seldom repeat between salt and free forms of one compound.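 Kinases were expressed as nanoluciferase fusions in K562 cells and luminescence was read every 4 h between 2 and 18 h as percent of control, DMSO set to 100% and a positive control to 0%. A time point counts as decreased when the signal drops significantly (2 sigma). The hit call is the authors' own, does not follow from the count of time points alone, and its rule is not shown.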

Amino acid sequences for entries named in this document (tags omitted). A change or cut given only in a name is not applied to a line headed by its entry.
UniProt Q8IWU2: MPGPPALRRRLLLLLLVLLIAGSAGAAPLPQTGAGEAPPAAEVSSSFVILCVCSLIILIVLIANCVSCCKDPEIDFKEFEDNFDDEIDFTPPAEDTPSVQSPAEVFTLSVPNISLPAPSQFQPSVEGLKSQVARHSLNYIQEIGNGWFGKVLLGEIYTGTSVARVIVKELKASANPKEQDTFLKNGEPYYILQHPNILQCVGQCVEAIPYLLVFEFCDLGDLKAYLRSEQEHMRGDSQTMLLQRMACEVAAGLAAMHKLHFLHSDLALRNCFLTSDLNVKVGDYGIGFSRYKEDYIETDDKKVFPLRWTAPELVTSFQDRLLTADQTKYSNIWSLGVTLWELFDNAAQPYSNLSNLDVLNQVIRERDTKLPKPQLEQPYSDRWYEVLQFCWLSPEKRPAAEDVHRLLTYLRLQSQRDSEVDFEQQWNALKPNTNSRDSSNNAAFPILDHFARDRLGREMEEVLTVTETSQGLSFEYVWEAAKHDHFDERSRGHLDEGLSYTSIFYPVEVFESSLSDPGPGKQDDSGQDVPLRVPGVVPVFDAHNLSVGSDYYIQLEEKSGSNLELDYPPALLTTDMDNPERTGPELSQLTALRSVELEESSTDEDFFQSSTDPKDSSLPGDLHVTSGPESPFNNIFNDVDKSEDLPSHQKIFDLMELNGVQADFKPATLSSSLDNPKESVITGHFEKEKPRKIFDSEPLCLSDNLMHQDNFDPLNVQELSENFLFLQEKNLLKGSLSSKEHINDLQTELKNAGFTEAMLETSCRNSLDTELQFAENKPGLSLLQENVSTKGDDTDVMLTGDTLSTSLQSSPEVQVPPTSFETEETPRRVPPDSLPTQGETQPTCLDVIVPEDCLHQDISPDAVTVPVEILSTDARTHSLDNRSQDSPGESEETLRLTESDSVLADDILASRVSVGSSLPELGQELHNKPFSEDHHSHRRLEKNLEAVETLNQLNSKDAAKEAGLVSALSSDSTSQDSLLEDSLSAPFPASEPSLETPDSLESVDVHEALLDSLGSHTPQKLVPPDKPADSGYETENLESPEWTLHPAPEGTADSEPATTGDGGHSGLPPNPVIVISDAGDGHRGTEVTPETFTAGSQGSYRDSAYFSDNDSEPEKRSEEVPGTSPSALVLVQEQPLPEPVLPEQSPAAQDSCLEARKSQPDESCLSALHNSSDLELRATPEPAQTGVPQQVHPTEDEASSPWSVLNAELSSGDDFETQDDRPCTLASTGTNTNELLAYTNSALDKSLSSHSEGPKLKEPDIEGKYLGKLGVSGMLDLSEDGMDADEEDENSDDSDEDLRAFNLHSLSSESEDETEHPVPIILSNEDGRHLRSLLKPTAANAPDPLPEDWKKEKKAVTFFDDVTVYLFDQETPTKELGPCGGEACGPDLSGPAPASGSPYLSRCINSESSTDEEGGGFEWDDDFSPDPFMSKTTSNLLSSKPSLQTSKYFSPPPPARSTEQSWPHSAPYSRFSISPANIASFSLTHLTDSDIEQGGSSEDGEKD
UniProt P07948: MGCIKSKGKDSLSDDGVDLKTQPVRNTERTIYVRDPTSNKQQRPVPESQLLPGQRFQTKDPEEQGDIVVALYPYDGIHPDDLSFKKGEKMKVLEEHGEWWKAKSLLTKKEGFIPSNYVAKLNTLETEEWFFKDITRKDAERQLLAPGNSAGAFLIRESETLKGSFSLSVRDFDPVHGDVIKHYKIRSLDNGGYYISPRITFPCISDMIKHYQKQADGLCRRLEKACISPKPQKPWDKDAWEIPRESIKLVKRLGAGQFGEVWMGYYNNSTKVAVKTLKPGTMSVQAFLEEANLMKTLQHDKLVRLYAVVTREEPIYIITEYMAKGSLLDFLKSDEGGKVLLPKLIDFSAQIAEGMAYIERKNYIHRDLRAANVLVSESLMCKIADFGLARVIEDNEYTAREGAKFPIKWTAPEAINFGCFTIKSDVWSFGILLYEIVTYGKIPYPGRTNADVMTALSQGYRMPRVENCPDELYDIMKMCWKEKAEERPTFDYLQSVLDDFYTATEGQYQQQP
UniProt Q12851: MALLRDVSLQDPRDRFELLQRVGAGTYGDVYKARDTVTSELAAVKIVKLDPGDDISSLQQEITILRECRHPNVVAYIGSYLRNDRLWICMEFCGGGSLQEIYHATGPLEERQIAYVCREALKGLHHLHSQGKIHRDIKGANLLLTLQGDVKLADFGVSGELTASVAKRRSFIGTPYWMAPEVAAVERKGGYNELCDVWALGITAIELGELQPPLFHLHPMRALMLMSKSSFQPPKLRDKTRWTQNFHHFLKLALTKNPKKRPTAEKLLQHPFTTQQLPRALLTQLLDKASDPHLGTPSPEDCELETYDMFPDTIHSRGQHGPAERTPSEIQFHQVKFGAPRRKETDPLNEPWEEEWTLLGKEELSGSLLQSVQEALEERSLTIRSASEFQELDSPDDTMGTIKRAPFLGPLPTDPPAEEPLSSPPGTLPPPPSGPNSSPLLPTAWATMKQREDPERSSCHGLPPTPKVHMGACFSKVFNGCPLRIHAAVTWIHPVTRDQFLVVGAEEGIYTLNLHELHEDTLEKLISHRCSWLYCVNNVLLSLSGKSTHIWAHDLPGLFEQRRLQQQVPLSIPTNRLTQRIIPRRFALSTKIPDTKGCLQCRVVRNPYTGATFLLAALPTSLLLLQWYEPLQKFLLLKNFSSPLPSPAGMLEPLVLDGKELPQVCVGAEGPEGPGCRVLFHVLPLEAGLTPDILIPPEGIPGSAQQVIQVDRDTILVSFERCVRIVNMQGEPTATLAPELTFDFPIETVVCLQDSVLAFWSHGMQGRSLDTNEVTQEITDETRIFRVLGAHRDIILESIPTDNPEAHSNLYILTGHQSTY
UniProt P28482, whole entry: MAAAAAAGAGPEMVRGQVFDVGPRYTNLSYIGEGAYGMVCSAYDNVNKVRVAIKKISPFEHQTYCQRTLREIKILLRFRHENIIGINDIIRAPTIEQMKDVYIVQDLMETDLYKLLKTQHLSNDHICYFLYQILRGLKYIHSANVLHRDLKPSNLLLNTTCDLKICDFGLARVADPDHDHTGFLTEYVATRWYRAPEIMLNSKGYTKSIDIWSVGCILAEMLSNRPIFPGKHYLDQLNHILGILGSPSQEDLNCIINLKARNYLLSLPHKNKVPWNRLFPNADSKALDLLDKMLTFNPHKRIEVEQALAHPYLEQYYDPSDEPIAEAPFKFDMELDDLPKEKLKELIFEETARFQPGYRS
UniProt P31152, whole entry: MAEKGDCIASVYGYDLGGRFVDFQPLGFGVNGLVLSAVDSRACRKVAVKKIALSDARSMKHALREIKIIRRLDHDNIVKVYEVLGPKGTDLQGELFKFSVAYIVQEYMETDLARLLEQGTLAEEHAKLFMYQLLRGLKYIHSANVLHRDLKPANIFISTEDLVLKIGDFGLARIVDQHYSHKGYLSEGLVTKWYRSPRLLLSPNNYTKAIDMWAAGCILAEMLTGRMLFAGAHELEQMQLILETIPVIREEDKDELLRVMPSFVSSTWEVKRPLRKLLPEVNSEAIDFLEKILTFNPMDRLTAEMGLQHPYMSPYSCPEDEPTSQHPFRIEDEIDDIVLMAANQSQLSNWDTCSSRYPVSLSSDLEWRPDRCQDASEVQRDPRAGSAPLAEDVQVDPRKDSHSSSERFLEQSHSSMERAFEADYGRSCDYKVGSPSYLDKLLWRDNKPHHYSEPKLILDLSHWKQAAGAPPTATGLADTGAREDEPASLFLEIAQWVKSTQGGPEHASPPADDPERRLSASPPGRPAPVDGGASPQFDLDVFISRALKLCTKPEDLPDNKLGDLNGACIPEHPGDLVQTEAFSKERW
UniProt P49137, whole entry, looked up: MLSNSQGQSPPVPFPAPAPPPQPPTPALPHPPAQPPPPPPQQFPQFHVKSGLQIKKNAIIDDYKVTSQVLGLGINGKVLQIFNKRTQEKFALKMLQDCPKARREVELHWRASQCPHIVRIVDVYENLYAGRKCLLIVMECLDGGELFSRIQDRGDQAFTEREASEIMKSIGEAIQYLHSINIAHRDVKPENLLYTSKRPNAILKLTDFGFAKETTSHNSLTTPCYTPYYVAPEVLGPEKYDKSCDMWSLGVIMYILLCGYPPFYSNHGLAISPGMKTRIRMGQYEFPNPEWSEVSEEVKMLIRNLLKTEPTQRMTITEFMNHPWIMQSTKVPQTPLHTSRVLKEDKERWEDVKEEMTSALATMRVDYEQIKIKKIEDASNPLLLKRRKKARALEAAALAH
UniProt Q9BUB5: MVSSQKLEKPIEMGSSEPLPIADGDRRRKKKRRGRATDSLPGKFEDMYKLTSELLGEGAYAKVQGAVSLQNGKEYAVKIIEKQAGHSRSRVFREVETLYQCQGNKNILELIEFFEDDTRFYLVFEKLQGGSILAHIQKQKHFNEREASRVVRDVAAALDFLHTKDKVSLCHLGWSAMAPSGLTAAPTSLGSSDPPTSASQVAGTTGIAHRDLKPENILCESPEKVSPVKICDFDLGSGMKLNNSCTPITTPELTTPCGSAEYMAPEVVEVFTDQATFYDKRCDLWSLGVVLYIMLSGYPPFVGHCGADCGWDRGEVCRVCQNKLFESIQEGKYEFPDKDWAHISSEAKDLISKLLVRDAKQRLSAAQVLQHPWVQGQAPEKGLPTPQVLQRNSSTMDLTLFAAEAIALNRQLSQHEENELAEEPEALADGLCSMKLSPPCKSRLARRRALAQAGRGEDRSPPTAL
UniProt Q16620, whole entry, looked up: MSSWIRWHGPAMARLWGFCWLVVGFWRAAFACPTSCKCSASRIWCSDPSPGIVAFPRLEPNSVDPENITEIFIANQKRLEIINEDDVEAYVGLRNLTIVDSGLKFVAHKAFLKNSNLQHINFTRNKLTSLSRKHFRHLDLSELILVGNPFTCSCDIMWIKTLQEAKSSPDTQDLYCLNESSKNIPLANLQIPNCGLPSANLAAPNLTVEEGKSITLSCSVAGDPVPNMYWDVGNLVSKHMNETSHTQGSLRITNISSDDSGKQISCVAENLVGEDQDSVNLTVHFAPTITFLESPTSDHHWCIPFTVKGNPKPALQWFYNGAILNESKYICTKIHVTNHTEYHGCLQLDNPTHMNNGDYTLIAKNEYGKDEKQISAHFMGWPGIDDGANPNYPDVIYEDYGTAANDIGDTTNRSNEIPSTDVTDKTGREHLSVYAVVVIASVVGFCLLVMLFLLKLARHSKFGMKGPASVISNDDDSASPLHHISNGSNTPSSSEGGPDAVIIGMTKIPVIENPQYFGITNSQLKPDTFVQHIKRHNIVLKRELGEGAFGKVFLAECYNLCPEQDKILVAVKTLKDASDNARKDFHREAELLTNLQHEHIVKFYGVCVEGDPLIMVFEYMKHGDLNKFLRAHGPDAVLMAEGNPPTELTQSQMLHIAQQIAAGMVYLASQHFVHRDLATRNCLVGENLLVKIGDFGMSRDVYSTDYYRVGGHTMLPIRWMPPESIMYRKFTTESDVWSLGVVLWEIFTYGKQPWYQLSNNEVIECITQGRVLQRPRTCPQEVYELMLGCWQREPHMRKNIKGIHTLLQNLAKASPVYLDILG

What was measured:
Test in all cases: number of time points (of 5) at which kinase-Nluc abundance scored as decreased, DMSO-normalised (count); higher = more persistent destabilization
Details in all cases: K562; 2-18 h
LMTK2 = LMTK2 (UniProt Q8IWU2)
LYN = LYN (UniProt P07948)
MAP2K1 = MAP2K1 (UniProt Q02750)
MAP2K2 = MAP2K2 (UniProt P36507)
MAP4K2 = MAP4K2 (UniProt Q12851)
MAPK1 = MAPK1 (UniProt P28482)
MAPK4 = MAPK4 (UniProt P31152)
MAPKAPK2 = MAPKAPK2 (UniProt P49137)
MKNK1 = MKNK1 (UniProt Q9BUB5)
NTRK2 = NTRK2 (UniProt Q16620)

Row | Compound | number of time points (LMTK2) | number of time points (LYN) | number of time points (MAP2K1) | number of time points (MAP2K2) | number of time points (MAP4K2) | number of time points (MAPK1) | number of time points (MAPK4) | number of time points (MAPKAPK2) | number of time points (MKNK1) | number of time points (NTRK2)
1 | O=S(=O)(NCCNC/C=C/c1ccc(Br)cc1)c1cccc2cnccc12 [H-89 (dihydrochloride)] (10 µM) | 0 | 0 | 0 | 0 | 0 | 0 | 0 | 0 | 0 | 0
2 | C=CC(=O)Nc1ccc2ncnc(Nc3cccc(Br)c3)c2c1 (10 µM) | 0 | 0 | 0 | 0 | 0 | 0 | 0 | 0 | 4 | 0
3 | CC(C)(C)n1nc(Cc2cccc3ccccc23)c2c(N)ncnc21 (10 µM) | 0 | 0 | 0 | 0 | 0 | 0 | 0 | 0 | 0 | 0
4 | CNc1nc(-c2ccc3c(N)n[nH]c3c2)cc(N2C[C@@H](C(=O)NC3CCCCC3)CC[C@H]2C)n1 (10 µM) | 0 | 0 | 0 | 0 | 0 | 0 | 0 | 0 | 0 | 1
5 | CC(C)=CC/C=C(\C)[C@H]1CC[C@]2(C)[C@@H]1[C@H](O)C[C@@H]1[C@@]3(C)CC[C@H](O[C@@H]4O[C@H](CO)[C@@H](O)[C@H](O)[C@H]4O[C@@H]4O[C@H](CO)[C@@H](O)[C@H](O)[C@H]4O)C(C)(C)[C@@H]3CC[C@]12C [Ginsenoside Rg5] (10 µM) | 0 | 0 | 0 | 0 | 0 | 0 | 0 | 0 | 0 | 0
6 | COc1nccc(-c2c(-c3ccc(F)cc3)ncn2C2CCC(O)CC2)n1 (stereo not given) (10 µM) | 0 | 0 | 0 | 0 | 0 | 0 | 0 | 0 | 0 | 0
7 | CCN(CC)CCCCNc1ncc2cc(-c3c(Cl)cccc3Cl)c(NC(=O)NC(C)(C)C)nc2n1 (2.5 µM) | 0 | 0 | 0 | 0 | 0 | 0 | 1 | 0 | 0 | 0
8 | COc1c(CC=C(C)C)c(O)cc2oc(=O)c(-c3ccc(O)cc3O)cc12 [Glycycoumarin] (10 µM) | 0 | 0 | 0 | 0 | 0 | 0 | 0 | 0 | 0 | 0
9 | CCOc1cc2ncc(-c3cc(N)nc(F)c3)n2cc1S(=O)(=O)C(C)(C)C (10 µM) | 0 | 0 | 0 | 0 | 0 | 0 | 0 | 0 | 0 | 0
10 | C[C@H](NC(=O)/C(C#N)=C/c1cccc(Br)n1)c1ccccc1 (2.5 µM) | 1 | 0 | 0 | 0 | 0 | 0 | 0 | 0 | 0 | 0
11 | O=C(O)CCNC(=O)c1ccc(/N=N/c2ccc(O)c(C(=O)O)c2)cc1 [Balsalazide] (10 µM) | 0 | 0 | 0 | 0 | 0 | 0 | 0 | 0 | 0 | 0
12 | O=C([O-])c1ccccc1O.[Na+] [Sodium Salicylate] (10 µM) | 0 | 0 | 0 | 0 | 0 | 0 | 0 | 0 | 0 | 0
13 | O=C(c1ccc(-c2ccc(Cl)cc2)o1)N(Cc1ccccn1)c1ccc(N2CCNCC2)cc1 [MK2-IN-1 (hydrochloride)] (10 µM) | 0 | 1 | 0 | 0 | 0 | 0 | 0 | 0 | 0 | 0
14 | COc1cc(C=C(C#N)C(N)=O)cc(CSc2nc3ccccc3s2)c1O (10 µM) | 0 | 0 | 0 | 0 | 0 | 0 | 0 | 0 | 0 | 0
15 | CCc1nc(-c2cccc(C)c2)c(-c2ccnc(NC(=O)c3ccccc3)c2)s1 (10 µM) | 0 | 0 | 0 | 0 | 0 | 0 | 0 | 0 | 0 | 0
16 | NS(=O)(=O)c1ccc(Nc2nc(OCC3CCCCC3)c3[nH]cnc3n2)cc1 (10 µM) | 0 | 0 | 0 | 0 | 0 | 0 | 0 | 0 | 0 | 0
17 | C/C=C(/C)C(=O)O[C@H]1Cc2cc3ccc(=O)oc3cc2OC1(C)C [Decursinol angelate] (10 µM) | 0 | 0 | 0 | 0 | 0 | 0 | 0 | 0 | 0 | 0
18 | CC(C)n1cnc2c(NCc3cccc(C(F)(F)F)c3)ncnc21 [Longdaysin] (10 µM) | 0 | 0 | 0 | 0 | 0 | 0 | 0 | 0 | 0 | 0
19 | CC(=O)NCC(=O)N1[C@@H]2CC[C@H]1c1ccc(Nc3ncc(C(F)(F)F)c(NC4CCC4)n3)cc12 (2.5 µM) | 3 | 0 | 0 | 0 | 0 | 0 | 0 | 0 | 3 | 1
20 | O=C1Cc2c([nH]c3ccc(Br)cc23)-c2ncccc2N1 [1-Azakenpaullone] (10 µM) | 0 | 0 | 0 | 0 | 0 | 0 | 0 | 0 | 0 | 0
21 | NC(=O)c1ccc(-c2nc(-c3ccccn3)c(-c3ccc4c(c3)OCO4)[nH]2)cc1 (10 µM) | 0 | 0 | 0 | 0 | 0 | 0 | 0 | 0 | 0 | 0
22 | Oc1ccc(-c2nc(-c3ccc(F)cc3)c(-c3ccncc3)[nH]2)cc1 (2.5 µM) | 0 | 0 | 0 | 0 | 0 | 0 | 0 | 0 | 0 | 0
23 | CC[C@H](CO)Nc1nc(NCc2ccccc2)c2ncn(C(C)C)c2n1 [Seliciclib] (10 µM) | 0 | 0 | 0 | 0 | 0 | 0 | 0 | 0 | 0 | 0

Single records, as listed above. Order of values: number of time points (LMTK2) | number of time points (LYN) | number of time points (MAP2K1) | number of time points (MAP2K2) | number of time points (MAP4K2) | number of time points (MAPK1) | number of time points (MAPK4) | number of time points (MAPKAPK2) | number of time points (MKNK1) | number of time points (NTRK2)
CC(=O)NCC(=O)N1[C@@H]2CC[C@H]1c1ccc(Nc3ncc(C(F)(F)F)c(NC4CCC4)n3)cc12 (2.5 µM) in the list: 3 | 0 | 0 | 0 | 0 | 0 | 0 | 0 | 3 | 1
NC(=O)c1ccc(-c2nc(-c3ccccn3)c(-c3ccc4c(c3)OCO4)[nH]2)cc1 (10 µM) in the list: 0 | 0 | 0 | 0 | 0 | 0 | 0 | 0 | 0 | 0
CCc1nc(-c2cccc(C)c2)c(-c2ccnc(NC(=O)c3ccccc3)c2)s1 (10 µM) in the list: 0 | 0 | 0 | 0 | 0 | 0 | 0 | 0 | 0 | 0

Later entries

Row | Compound | number of time points (LMTK2) | number of time points (LYN) | number of time points (MAP2K1) | number of time points (MAP2K2) | number of time points (MAP4K2) | number of time points (MAPK1) | number of time points (MAPK4) | number of time points (MAPKAPK2) | number of time points (MKNK1) | number of time points (NTRK2)
24 | COc1cc2c(Nc3ccc(NC(=O)c4ccccc4)cc3)ncnc2cc1OCCCN1CCOCC1 (10 µM) | 0 | 0 | 0 | 0 | 0 | 0 | 0 | 0 | 0 | 0
25 | COc1cc(Oc2ccnc3cc(OC)c(OC)cc23)ccc1NC(=O)NC(C)c1nccs1 (stereo not given) (2.5 µM) | 0 | 0 | 0 | 0 | 0 | 0 | 0 | 0 | 0 | 0
26 | N#C/C(=C\c1ccc(O)c(O)c1)C(=O)NCCCc1ccccc1 (10 µM) | 0 | 0 | 0 | 0 | 0 | 0 | 0 | 0 | 0 | 0
27 | CC(=O)N1CCN(c2ccc(OCC3COC(Cn4ccnc4)(c4ccc(Cl)cc4Cl)O3)cc2)CC1 (stereo not given) [Ketoconazole] (2.5 µM) | 0 | 0 | 0 | 0 | 0 | 0 | 0 | 0 | 0 | 0
28 | Nc1nc(OCC2CCCCC2)c2[nH]cnc2n1 (10 µM) | 0 | 0 | 0 | 0 | 0 | 0 | 0 | 0 | 0 | 0
29 | Cc1c(NC(=O)c2cc3c(s2)CCCC3)cccc1-c1cn(C)c(=O)c(Nc2ccc([C@@H]3C(=O)N(C)CCN3C)cc2)n1 (10 µM) | 0 | 0 | 0 | 0 | 0 | 0 | 0 | 0 | 0 | 0
30 | O=C(Nc1ccc(-c2ccnc(Nc3ccc(N4CCOCC4)cc3)n2)cc1)C1CCCN1 (stereo not given) (10 µM) | 0 | 0 | 0 | 0 | 0 | 0 | 0 | 0 | 0 | 0
31 | CCCCNc1ncc(-c2ccc(CN3CCOCC3)cn2)c(NC2CCC(O)CC2)n1 (stereo not given) (10 µM) | 0 | 0 | 0 | 0 | 0 | 0 | 0 | 0 | 0 | 0
32 | COC(=O)c1ccc2c(C(=Nc3ccc(N(C)C(=O)CN4CCN(C)CC4)cc3)c3ccccc3)c(O)[nH]c2c1 [Nintedanib] (2.5 µM) | 0 | 0 | 0 | 0 | 0 | 0 | 0 | 0 | 0 | 0
33 | N#CC(=Cc1ccc(O)c(O)c1)C(=O)NCc1ccccc1 (mixture of isomers) (10 µM) | 0 | 0 | 0 | 0 | 0 | 0 | 0 | 0 | 0 | 0
34 | COc1cc(C(=O)NC2CCN(C)CC2)ccc1Nc1ncc2c(n1)N(C1CCCC1)CC(F)(F)C(=O)N2C (10 µM) | 0 | 0 | 0 | 0 | 0 | 0 | 0 | 0 | 0 | 0
35 | CN1CCN(c2ccc(Nc3cc(-c4cccc(-n5ccc6cc(C7CC7)cc(F)c6c5=O)c4CO)cn(C)c3=O)nc2)CC1 (2.5 µM) | 0 | 0 | 0 | 0 | 0 | 0 | 0 | 0 | 0 | 0
36 | COc1cc(OC)c(F)c(COc2cnc(Nc3cnn(CCO)c3)nc2)c1F (2.5 µM) | 1 | 0 | 0 | 0 | 0 | 0 | 0 | 0 | 1 | 0
37 | Nc1ncnc2c1c(-c1cccc(OCc3ccccc3)c1)cn2C1CC(CN2CCCC2)C1 (stereo not given) (2.5 µM) | 0 | 0 | 0 | 0 | 0 | 0 | 0 | 0 | 0 | 0
38 | CC(C)(C)c1nc2c3cc[nH]c(=O)c3c3cc(F)ccc3c2[nH]1 [Pyridone 6] (10 µM) | 0 | 0 | 0 | 0 | 0 | 0 | 0 | 0 | 0 | 0
39 | COc1ccc(Oc2cc(NCCC(F)(F)F)c3ncc(-c4ccc(C(=O)NC5CC5)c(C)c4)n3n2)c(F)c1F (2.5 µM) | 0 | 0 | 0 | 0 | 0 | 0 | 0 | 0 | 0 | 0
40 | CCOc1ccn(-c2ccc(F)cc2)c(=O)c1C(=O)Nc1ccc(Oc2ccnc(N)c2Cl)c(F)c1 (10 µM) | 0 | 0 | 0 | 0 | 0 | 0 | 0 | 0 | 0 | 1
41 | COc1cc2ncnc(Nc3ccc(O)cc3)c2cc1OC (10 µM) | 0 | 0 | 0 | 0 | 0 | 0 | 0 | 0 | 0 | 0
42 | CCC(=O)N1CCN(c2ccc(-n3c(=O)ccc4cnc5ccc(-c6cnc7ccccc7c6)cc5c43)cc2C(F)(F)F)CC1 [Torin 1] (2 µM) | 0 | 0 | 0 | 0 | 0 | 0 | 0 | 0 | 0 | 0
43 | CCOc1cc2ncc(C#N)c(Nc3ccc(OCc4ccccn4)c(Cl)c3)c2cc1NC(=O)/C=C/CN(C)C [Neratinib] (10 µM) | 0 | 0 | 0 | 0 | 0 | 0 | 0 | 0 | 0 | 0
44 | CCN(CCCOc1ccc2c(Nc3cc(CC(=O)Nc4cccc(F)c4)[nH]n3)ncnc2c1)CCOP(=O)(O)O [Barasertib] (10 µM) | 0 | 0 | 0 | 0 | 0 | 0 | 0 | 0 | 0 | 0
45 | Cc1cc(F)c(C(=O)Nc2cccc(-c3nncn3C(C)C)n2)cc1-n1cnc(C2CC2)c1 [Selonsertib] (10 µM) | 0 | 0 | 0 | 0 | 0 | 0 | 0 | 0 | 0 | 0
